Laboratory results: patent US20180170997A1 (NATIONAL CANCER CENTER, published 2018)
These are yes or no findings as the source states them, for the method shown. Some entries that bind do so weakly or less than the wild type.

Tests used:
[1] = target: activation-inducible tumor necrosis factor receptor (AITR) on human T cells (human) (UniProt Q9Y5U5); assay: flow cytometry on stimulated PBMC subsets
[2] = target: activation-inducible tumor necrosis factor receptor (AITR) on human T cells (human) (UniProt Q9Y5U5); assay: flow cytometry on anti-CD3/IL-2-activated CD4+ T cells (FIG. 1D)
[3] = target: T1, AITR on AITR-overexpressed Jurkat cells (CD5L-AITR-TM-ECD) (human) (UniProt Q9Y5U5); assay: flow cytometry, PE-conjugated mAb on AITR-overexpressed Jurkat cells (FIG. 1B)
T1 sequence (looked up): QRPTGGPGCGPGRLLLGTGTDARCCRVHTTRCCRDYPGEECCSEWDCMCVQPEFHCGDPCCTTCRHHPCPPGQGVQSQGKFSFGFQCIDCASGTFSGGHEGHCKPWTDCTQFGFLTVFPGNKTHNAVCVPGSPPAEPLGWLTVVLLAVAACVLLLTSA

[4] = target: T1, AITR on AITR-overexpressed Jurkat cells (CD5L-AITR-TM-ECD) (human); assay: flow cytometry on AITR-overexpressed Jurkat cells

binding [3]: binds
binding [4]: binds
B1: anti-AITR mAb B62 (antibody, V domains shown)
VH: EVQLVQSGGGLVQPGGSLRLSCSASGFSFSSYAMHWVRQAPGKGLEYVSGISDNGGSTKYADSVKGRFTISRDNSQNTLYLQMSSLRSEDTAVYYCARGGPTYYDFWSGYYTDEDAFDIWGQGTLVTVSS
VL: EIVMTQSPSSLSASVGDRVTITCRASQSINNYLNWYQQKPGKAPKLLIYATSRLQSGVPSRFSGSGSGADLTLTISSLQPEDVATYYCQQSYSFPWTFGQGTKVEIK
binding [1]: binds
binding [2]: binds
